Experimental data from article PMC6044281.
These are yes or no findings as the source states them, for the method shown. For part of these data: In cells and extracts the contact can be indirect. Some binding calls cover weakened binding; strength is not graded here. For part of these data: Sequences can lack the tags named with a protein. One block for each binder: values may come before it.

Experiments:
[1] = target: T1, mHOIL-1L WT (expressed in HEK293T HOIP KO cells) (mouse) (UniProt Q9WUB0); experiment: co-IP; expression plasmids transfected into HEK293T HOIP KO cells; anti-FLAG immunoprecipitates immunoblotted
T1 sequence: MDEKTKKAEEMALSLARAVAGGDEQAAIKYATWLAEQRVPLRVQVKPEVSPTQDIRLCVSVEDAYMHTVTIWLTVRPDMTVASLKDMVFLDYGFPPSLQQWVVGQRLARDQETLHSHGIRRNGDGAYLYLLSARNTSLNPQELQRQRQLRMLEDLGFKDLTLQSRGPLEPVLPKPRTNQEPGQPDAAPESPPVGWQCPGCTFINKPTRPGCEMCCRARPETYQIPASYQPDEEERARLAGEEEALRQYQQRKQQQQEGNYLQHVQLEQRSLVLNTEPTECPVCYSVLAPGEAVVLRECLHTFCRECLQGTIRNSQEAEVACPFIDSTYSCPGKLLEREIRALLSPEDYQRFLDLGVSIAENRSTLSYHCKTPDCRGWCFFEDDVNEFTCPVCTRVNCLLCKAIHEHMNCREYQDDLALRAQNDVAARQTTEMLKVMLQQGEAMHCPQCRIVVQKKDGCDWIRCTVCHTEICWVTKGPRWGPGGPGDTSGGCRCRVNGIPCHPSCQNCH

[2] = target: T2, mHOIL-1L_(1–189)-strep (mouse) (UniProt Q9WUB0); experiment: SPR; mHOIL-1L_(1–189)-strep immobilised on the sensor chip with anti-strep antibody; MBP-mSHARPIN fragments as analytes; both purified
T2 sequence: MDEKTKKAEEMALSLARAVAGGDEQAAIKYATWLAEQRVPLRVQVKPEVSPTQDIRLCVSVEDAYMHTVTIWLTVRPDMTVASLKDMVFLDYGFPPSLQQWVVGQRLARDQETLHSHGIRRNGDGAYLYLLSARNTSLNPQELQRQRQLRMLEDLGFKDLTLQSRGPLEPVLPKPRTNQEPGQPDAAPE

[3] = target: T3, human HOIL-1L WT (expressed in HEK293T HOIP KO cells) (human), Q9BYM8; experiment: co-IP; expression plasmids transfected into HEK293T HOIP KO cells; anti-FLAG immunoprecipitates immunoblotted; conditions: remark: other sources report otherwise
T3 chain: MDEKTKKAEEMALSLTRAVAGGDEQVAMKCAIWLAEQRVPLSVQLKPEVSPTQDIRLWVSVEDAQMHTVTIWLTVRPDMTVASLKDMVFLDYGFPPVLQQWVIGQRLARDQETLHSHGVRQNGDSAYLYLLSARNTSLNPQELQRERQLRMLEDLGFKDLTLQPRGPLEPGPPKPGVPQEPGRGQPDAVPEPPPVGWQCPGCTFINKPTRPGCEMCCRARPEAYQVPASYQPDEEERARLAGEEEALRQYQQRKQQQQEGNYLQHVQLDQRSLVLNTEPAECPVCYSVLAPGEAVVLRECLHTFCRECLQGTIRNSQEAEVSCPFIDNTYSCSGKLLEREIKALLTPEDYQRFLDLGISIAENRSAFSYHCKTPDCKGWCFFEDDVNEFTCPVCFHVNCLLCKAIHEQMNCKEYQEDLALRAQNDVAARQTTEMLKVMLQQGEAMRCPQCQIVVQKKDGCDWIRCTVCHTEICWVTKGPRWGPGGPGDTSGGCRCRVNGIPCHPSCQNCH

binding [1]: binds
B1: mSHARPIN WT (expressed in HEK293T HOIP KO cells) (protein, UniProt Q91WA6 1-380)
chain: MSPPAGGAAVAADPASPVVLLAVHAAVRPLGAGQDAEAQPRKLQLIADPERPGRFRLGLLGTEPGAVSLEWPLEAICYTVRGPNQHELQPPPGGPGTFSVHFLDPEEAQQWAALVRDATAEGQNGSGSPAPAPAPAMCPISPPCSSMAQIPKATQPEVDLPQSSGNFKKEELATRLSQAIAGGDEKAAAQVAAVLAQHHVALNVQLMEAWFPPGPIRLQVTVEDATSVLSSSSSAHVSLKIHPHCSIAALQDQVFSEFGFPPAVQRWVIGRCLCMPERSLASYGVSQDGDPAFLYLLSAPREVSGQSLQNSKMDRKLGLFPQSLGLPHDLQPSSSSLPSPSQPGWSCPSCTFINASNRPGCEMCSTQRPCAWDPLAAAST

B2: MBP-mSHARPIN_(163–301) L176A/I180A (domain or fragment, UniProt Q91WA6 163-301)
chain: SSGNFKKEELATRASQAAAGGDEKAAAQVAAVLAQHHVALNVQLMEAWFPPGPIRLQVTVEDATSVLSSSSSAHVSLKIHPHCSIAALQDQVFSEFGFPPAVQRWVIGRCLCMPERSLASYGVSQDGDPAFLYLLSAPR
binding [2]: no binding (tested: 40 mM (as printed in the legend))

binding [3]: binds
B3: SHARPIN co-expressed with human HOIL-1L in HEK293T HOIP KO cells, Q9H0F6 1-387 (protein)
chain: MAPPAGGAAAAASDLGSAAVLLAVHAAVRPLGAGPDAEAQLRRLQLSADPERPGRFRLELLGAGPGAVNLEWPLESVSYTIRGPTQHELQPPPGGPGTLSLHFLNPQEAQRWAVLVRGATVEGQNGSKSNSPPALGPEACPVSLPSPPEASTLKGPPPEADLPRSPGNLTEREELAGSLARAIAGGDEKGAAQVAAVLAQHRVALSVQLQEACFPPGPIRLQVTLEDAASAASAASSAHVALQVHPHCTVAALQEQVFSELGFPPAVQRWVIGRCLCVPERSLASYGVRQDGDPAFLYLLSAPREAPATGPSPQHPQKMDGELGRLFPPSLGLPPGPQPAASSLPSPLQPSWSCPSCTFINAPDRPGCEMCSTQRPCTWDPLAAAST
